# Test results published in patent US20080248024A1, “THERAPEUTIC AGENT FOR CANCER, INFLAMMATION, AND AUTO-IMMUNE DISEASE CONTAINING INHIBITOR OF ZINC FINGER PROTEIN 91” (Korea Research Institute of Bioscience and Biotechnology, priority 2007, published 2008).
# Test system: MDA-MB-231 cells
# Experiment: 17K human cDNA microarray screen for genes regulated by KA
# Type: cell-based
# Conditions: kamebakaurin 10 μg/ml, 5 hours
compound,measurement,value
"C=C1C(=O)[C@@]23[C@H](O)C[C@@H]4C(C)(C)CC[C@H](O)[C@@]4(CO)[C@@H]2CC[C@@H]1[C@H]3O [kamebakaurin, Kamebakaurin]",genes down-regulated,295
same,genes up-regulated,333
